These results are taken from PMC12509982.

Results are given in words; binding and its absence hold for the method and conditions named. Binding seen in cells or lysates may run through a third protein. Tags and fused reporters may be left off the sequences shown.

In this assay the target is T1, FLAG-DCLK3 (Doublecortin-like kinase 3) (human) (UniProt Q9C098).
T1 sequence: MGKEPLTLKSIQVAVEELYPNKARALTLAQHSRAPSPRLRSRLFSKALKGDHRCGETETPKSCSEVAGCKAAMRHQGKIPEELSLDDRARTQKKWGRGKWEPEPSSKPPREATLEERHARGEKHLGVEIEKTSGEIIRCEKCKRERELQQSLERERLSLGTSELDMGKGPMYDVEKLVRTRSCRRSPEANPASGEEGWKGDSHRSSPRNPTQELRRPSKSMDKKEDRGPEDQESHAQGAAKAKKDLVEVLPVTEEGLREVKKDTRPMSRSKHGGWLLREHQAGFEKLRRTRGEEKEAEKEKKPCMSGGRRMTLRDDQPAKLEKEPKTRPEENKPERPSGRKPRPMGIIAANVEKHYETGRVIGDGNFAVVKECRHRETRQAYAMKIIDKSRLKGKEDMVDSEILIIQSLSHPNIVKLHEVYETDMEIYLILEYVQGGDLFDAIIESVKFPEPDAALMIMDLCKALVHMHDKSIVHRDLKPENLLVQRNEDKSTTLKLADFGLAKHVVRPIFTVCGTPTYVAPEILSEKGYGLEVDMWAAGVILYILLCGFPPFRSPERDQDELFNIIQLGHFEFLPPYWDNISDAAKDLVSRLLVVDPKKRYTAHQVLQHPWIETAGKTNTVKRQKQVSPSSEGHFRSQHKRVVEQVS
The assay is described as follows: co-IP; HEK293T co-transfected with FLAG-DCLK3 and GFP-Tau; lysed in RIPA buffer after 48 h; anti-FLAG M2 magnetic or agarose beads; washed three times in RIPA buffer; blots with anti-FLAG, anti-GFP and anti-pS262 Tau.

With GFP-Tau, unphosphorylated, the binding result is on record as “no binding”.
